Experimental data as given in patent EP0661292A1, “Orally active renin inhibitors” (PFIZER INC., priority 1990, dated 1991).
Structures can show the parent of a compound that is named as a salt. Some results were stated once for a whole list of compounds, not compound by compound.

Molecular target: T1, human plasma renin (Homo sapiens, UniProt P00797)
T1 construct: Human plasma (or plasma from other species) contains both A₀ and renin; from tissue; host or cells: human EDTA plasma
T1 sequence (P00797 67-406): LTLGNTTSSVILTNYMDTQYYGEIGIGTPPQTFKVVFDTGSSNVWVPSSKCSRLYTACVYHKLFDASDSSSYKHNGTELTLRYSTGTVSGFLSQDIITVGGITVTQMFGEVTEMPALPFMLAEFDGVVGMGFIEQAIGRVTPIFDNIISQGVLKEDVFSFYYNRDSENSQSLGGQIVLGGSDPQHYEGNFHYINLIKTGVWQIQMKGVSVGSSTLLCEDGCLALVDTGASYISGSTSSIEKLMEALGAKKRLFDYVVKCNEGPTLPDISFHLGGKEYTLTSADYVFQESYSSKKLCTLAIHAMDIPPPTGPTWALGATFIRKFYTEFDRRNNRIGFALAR
Assay: Renin inhibition assay (inhibition of human plasma renin activity, angiotensin I generation measured by RIA)
Format: biochemical
Settings: inhibition of human plasma renin activity at pH 7.4; read-out: IC₅₀

Row | SMILES | IC50 [nM]
1 | CCCC[C@H](NC(=O)[C@H](Cc1ccccc1)NC(=O)N1CCC(N(C)C)CC1)C(=O)N[C@@H](CC1CCCCC1)[C@@H](O)C(=O)OC(C)C [Example 26, 4-Dimethylaminopiperidine-1-carbonyl-Phe-Nle-norCSta Isopropyl Ester] | < 50
2 | CSC[C@H](NC(=O)[C@H](Cc1ccccc1)NC(=O)N1CCC(NC(C)C)CC1)C(=O)N[C@@H](CC1CCCCC1)[C@@H](O)C(=O)OC(C)C [Example 17, 4-Isopropylaminopiperidine-1-carbonyl-Phe-SMeCys-norCSta Isopropyl Ester] | < 50
3 | CSC[C@H](NC(=O)[C@H](Cc1ccccc1)NC(=O)N1CCC(N(C)CCCN(C)C)CC1)C(=O)N[C@@H](CC1CCCCC1)[C@@H](O)C(=O)OC(C)C [Example 19, 4-(N-3-Dimethylaminopropyl-N-methylamino)piperidine-1-carbonyl-Phe-SMeCys-norCSta Isopropyl Ester] | < 50
4 | CSC[C@H](NC(=O)[C@H](Cc1ccccc1)NC(=O)N1CCC(N2CCC(O)CC2)CC1)C(=O)N[C@@H](CC1CCCCC1)[C@@H](O)C(=O)OC(C)C [Example 21, 4-(4-Hydroxy-1-piperidino)piperidine-1-carbonyl-Phe-SMeCys-norCSta Isopropyl Ester] | < 50
5 | CCCCNC1CCN(C(=O)N[C@@H](Cc2ccccc2)C(=O)N[C@@H](CSC)C(=O)N[C@@H](CC2CCCCC2)[C@@H](O)C(=O)OC(C)C)CC1 [Example 15, 4-N-Butylaminopiperidine-1-carbonyl-Phe-SMeCys-norCSta Isopropyl Ester] | < 50
6 | CCNC1CCN(C(=O)N[C@@H](Cc2ccccc2)C(=O)N[C@@H](CSC)C(=O)N[C@@H](CC2CCCCC2)[C@@H](O)C(=O)OC(C)C)CC1 [Example 10, 4-Ethylamino-piperidine-1-carbonyl-Phe-SMeCys-nor-CSta Isopropyl Ester] | < 50
7 | CSC[C@H](NC(=O)[C@H](Cc1ccccc1)NC(=O)NCCN1CCOCC1)C(=O)N[C@@H](CC1CCCCC1)[C@@H](O)C(=O)OC(C)C [Example 34, 2-(4-Morpholino)ethyl-1-amino-1-carbonyl-Phe-SMeCys-norCSta Isopropyl Ester] | < 50
8 | CSC[C@H](NC(=O)[C@H](Cc1ccccc1)NC(=O)N1CCC(N(C)C)C1)C(=O)N[C@@H](CC1CCCCC1)[C@@H](O)C(=O)OC(C)C (stereo partly shown) [Example 23, 3-Dimethylaminopyrrolidine-1-carbonyl-Phe-SMeCys-norCSta Isopropyl Ester] | < 50
9 | CNC1CCN(C(=O)N[C@@H](Cc2ccccc2)C(=O)N[C@@H](CSC)C(=O)N[C@@H](CC2CCCCC2)[C@@H](O)C(=O)OC(C)C)CC1 [Example 3, 4-Methylaminopiperidine-1-carbonyl-Phe-SMeCys-norCSta Isopropyl Ester] | < 50
10 | CSC[C@H](NC(=O)[C@H](CC1CCCCC1)NC(=O)N1CCC(N(C)C)CC1)C(=O)N[C@@H](CC1CCCCC1)[C@@H](O)C(=O)OC(C)C [Example 8, 4-Dimethylaminopiperidine-1-carbonyl-hexahydroPhe-SMeCys-norCSta Isopropyl Ester] | < 50
11 | CSC[C@H](NC(=O)[C@H](Cc1ccccc1)NC(=O)N1CCC(N2CCCC2)CC1)C(=O)N[C@@H](CC1CCCCC1)[C@@H](O)C(=O)OC(C)C [Example 9, 4-(1-Pyrrolidinyl)-piperidine-1-carbonyl-Phe-SMeCys-nor-CSta Isopropyl Ester] | < 50
12 | CCN(CC)C1CCN(C(=O)N[C@@H](Cc2ccccc2)C(=O)N[C@@H](CSC)C(=O)N[C@@H](CC2CCCCC2)[C@@H](O)C(=O)OC(C)C)CC1 [Example 2, 4-Diethylaminopiperidine-1-carbonyl-Phe-SMeCys-norCStaIsopropyl Ester] | < 50
13 | CSC[C@H](NC(=O)[C@H](Cc1ccccc1)NC(=O)N1CCC([N+](C)(C)C)CC1)C(=O)N[C@@H](CC1CCCCC1)[C@@H](O)C(=O)OC(C)C [Example 38, 4-Trimethylammoniopiperidine-1-carbonyl-Phe-SMeCys-norCSta Isopropyl Ester Iodide] | < 50
14 | CC(C)OC(=O)[C@H](O)[C@H](CC1CCCCC1)NC(=O)[C@H](Cc1c[nH]cn1)NC(=O)[C@H](Cc1ccccc1)NC(=O)N1CCC(N(C)C)CC1 [Example 27, 4-Dimethylaminopiperidine-1-carbonyl-Phe-His-norCSta Isopropyl Ester] | < 50
15 | CSC[C@H](NC(=O)[C@@H](CC(=O)N1CCC(N(C)C)CC1)Cc1ccccc1)C(=O)N[C@@H](CC1CCCCC1)[C@@H](O)C(=O)OC(C)C [Example 30, (4-(4-Dimethylamino)-1-piperidino)-2R-benzylsuccinoyl-SMeCys-norCSta Isopropyl Ester] | < 50
16 | COC[C@H](NC(=O)[C@H](Cc1ccccc1)NC(=O)N1CCC(N(C)C)CC1)C(=O)N[C@@H](CC1CCCCC1)[C@@H](O)C(=O)OC(C)C [Example 6, 4-Dimethylaminopiperidine-1-carbonyl-Phe-OMeSer-norCStaIso propyl Ester] | < 50

Row | SMILES | IC50 [nM]
17 | CSC[C@H](NC(=O)[C@H](Cc1ccccc1)NC(=O)N1CCC(N2CCOCC2)CC1)C(=O)N[C@@H](CC1CCCCC1)[C@@H](O)C(=O)OC(C)C [Example 4, 4-(1-Morpholino)piperidine-1-carbonyl-Phe-SMeCys-nor-CSta Isopropyl Ester] | < 50
18 | CSC[C@H](NC(=O)[C@H](Cc1ccccc1)NC(=O)NCCCN1CCOCC1)C(=O)N[C@@H](CC1CCCCC1)[C@@H](O)C(=O)OC(C)C [Example 35, 2-(4-Morpholino)propyl-1-amino-1-carbonyl-Phe-SMeCys-norCSta Isopropyl Ester] | < 50
19 | CSC[C@H](NC(=O)[C@H](Cc1ccccc1)NC(=O)N1CCC(N)CC1)C(=O)N[C@@H](CC1CCCCC1)[C@@H](O)C(=O)OC(C)C [Example 5, 4-Aminopiperidine-1-carbonyl-Phe-SMeCys-norCSta Isopropyl Ester] | < 50
20 | CC(C)C[C@H](O)[C@H](O)[C@H](CC1=CCC=CC1)NC(=O)OC(C)(C)C [Example 12, BOC-2S-amino-1-[1'4'-cyclohexadienyl]-(3R,4S)-dihydroxy-6-methylheptane] | < 50
21 | CSC[C@H](NC(=O)[C@H](Cc1ccccc1)NC(=O)N1CCC(N2CCN(C)CC2)CC1)C(=O)N[C@@H](CC1CCCCC1)[C@@H](O)C(=O)OC(C)C [Example 22, 4-(4-Methyl-1-piperazino)piperidine-1-carbonyl-Phe-SMeCys-norCSta Isopropyl Ester] | < 50
22 | C=CC[C@H](NC(=O)[C@H](Cc1ccccc1)NC(=O)N1CCC(N(C)C)CC1)C(=O)N[C@@H](CC1CCCCC1)[C@@H](O)C(=O)OC(C)C [Example 28, 4-Dimethylaminopiperidine-1-carbonyl-Phe-L-allylglycine-norCSta Isopropyl Ester Hydrochloride] | < 50
23 | CC(C)OC(=O)[C@H](O)[C@H](CC1CCCCC1)NC(=O)[C@H](CO)NC(=O)[C@H](Cc1ccccc1)NC(=O)N1CCC(N2CCCC2)CC1 [Example 32, 4-(1-Pyrrolidinyl)piperidine-1-carbonyl-Phe-Serine-norCSta Isopropyl Ester] | < 50
24 | COC(=O)CN(C)C1CCN(C(=O)N[C@@H](Cc2ccccc2)C(=O)N[C@@H](CSC)C(=O)N[C@@H](CC2CCCCC2)[C@@H](O)C(=O)OC(C)C)CC1 [Example 14, 4-(N-Methoxycarbonylmethyl-N-methylamino)piperidine-1-carbonyl-Phe-SMeCys-norCSTA Isopropyl Ester] | < 50
25 | COCCN(CCOC)C1CCN(C(=O)N[C@@H](Cc2ccccc2)C(=O)N[C@@H](CSC)C(=O)N[C@@H](CC2CCCCC2)[C@@H](O)C(=O)OC(C)C)CC1 [Example 33, 4-(bis-(2-methoxyethyl)-amine)piperidine-1-carbonyl-Phe-SMeCys-norCSta Isopropyl Ester] | < 50
26 | C=CC[C@H](NC(=O)[C@H](Cc1ccccc1)NC(=O)N1CCC(N2CCCC2)CC1)C(=O)N[C@@H](CC1CCCCC1)[C@@H](O)C(=O)OC(C)C [Example 29, 4-(1-Pyrrolidinyl)piperidine-1-carbonyl-Phe-L-allylglycine-norCSta Isopropyl Ester] | < 50
27 | CSC[C@H](NC(=O)[C@H](Cc1ccccc1)OC(=O)N1CCC(N(C)C)CC1)C(=O)N[C@@H](CC1CCCCC1)[C@@H](O)C(=O)OC(C)C [Example 31, 4-Dimethylaminopiperidine-1-carbonyl-3-L-phenyllactyl-SMeCys-norCSta Isopropyl Ester] | < 50
28 | CSC[C@H](NC(=O)[C@H](Cc1ccccc1)NC(=O)N1CCC(N(C)C)CC1)C(=O)N[C@@H](CC1CCCCC1)[C@@H](O)C(=O)OC(C)C [Example 1, 4-Dimethylaminopiperidine-1-carbonyl-Phe-SMeCys-norCSta Isopropyl Ester] | < 50
29 | CCCOC(=O)[C@H](O)[C@H](CC1CCCCC1)NC(=O)[C@H](CSC)NC(=O)[C@H](Cc1ccccc1)NC(=O)N1CCC(N(C)C)CC1 [Example 25, 4-Dimethylaminopiperidine-1-carbonyl-Phe-SMeCys-norCStan-Propyl Ester] | < 50
30 | CSC[C@H](NC(=O)[C@H](Cc1ccccc1)NC(=O)C1CCC(N(C)C)CC1)C(=O)N[C@@H](CC1CCCCC1)[C@@H](O)C(=O)OC(C)C (stereo partly shown) [Example 36, (1-Dimethylamino)-cyclohexane-4-carbonyl-Phe-SMeCys-norCSta Isopropyl Ester] | < 50
31 | CCC[C@H](NC(=O)[C@H](Cc1ccccc1)NC(=O)N1CCC(N(C)C)CC1)C(=O)N[C@@H](CC1CCCCC1)[C@@H](O)C(=O)OC(C)C [Example 7, 4-Dimethylaminopiperidine-1-carbonyl-Phe-nVal-norCSta-Isopropyl Ester] | < 50
